According to paper PMC12211564:
No constants are given. Whether binding was seen depends on the method and setting. In cells and extracts the contact can be indirect. Some binding calls cover weakened binding; strength is not graded here. Tags and fused reporters may be left off the sequences shown.

Legend:
Assay in all cases: pull-down; His-tagged MFN2 constructs and GST-tagged RFFL (or GST) co-expressed in ArcticExpress E. coli; extract incubated with glutathione Sepharose beads 4 h at 4 C; washed three times with buffer B (50 mM NaH2PO4 pH 8.0, 500 mM NaCl, 5 mM MgCl2, 5% glycerol); immunoblot
[1] = molecular target: T1, GST-RFFL (full-length RFFL with a GST tag) (human) (UniProt Q8WZ73)
T1 sequence: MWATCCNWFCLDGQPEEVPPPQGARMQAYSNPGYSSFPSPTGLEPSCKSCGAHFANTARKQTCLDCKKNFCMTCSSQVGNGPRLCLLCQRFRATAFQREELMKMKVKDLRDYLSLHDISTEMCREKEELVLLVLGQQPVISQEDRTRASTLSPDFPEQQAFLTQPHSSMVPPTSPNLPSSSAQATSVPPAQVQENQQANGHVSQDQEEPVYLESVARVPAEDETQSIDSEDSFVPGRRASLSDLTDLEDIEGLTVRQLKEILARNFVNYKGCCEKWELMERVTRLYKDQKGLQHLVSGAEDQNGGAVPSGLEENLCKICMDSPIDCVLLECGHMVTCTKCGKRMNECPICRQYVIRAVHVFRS

[2] = molecular target: T2, GST-RFFL H333A (human) (UniProt Q8WZ73)
T2 sequence: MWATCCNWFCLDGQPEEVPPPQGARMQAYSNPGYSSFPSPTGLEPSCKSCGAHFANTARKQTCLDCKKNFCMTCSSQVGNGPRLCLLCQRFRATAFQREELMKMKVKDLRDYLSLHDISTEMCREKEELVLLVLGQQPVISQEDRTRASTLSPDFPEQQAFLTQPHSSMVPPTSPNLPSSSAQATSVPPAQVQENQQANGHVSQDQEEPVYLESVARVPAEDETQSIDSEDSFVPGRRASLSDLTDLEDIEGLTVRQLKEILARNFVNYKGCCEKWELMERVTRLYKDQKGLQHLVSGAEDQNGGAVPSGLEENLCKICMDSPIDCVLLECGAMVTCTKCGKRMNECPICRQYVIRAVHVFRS

[3] = molecular target: T3, GST-RFFL C5, 6A (human) (UniProt Q8WZ73)
T3 sequence: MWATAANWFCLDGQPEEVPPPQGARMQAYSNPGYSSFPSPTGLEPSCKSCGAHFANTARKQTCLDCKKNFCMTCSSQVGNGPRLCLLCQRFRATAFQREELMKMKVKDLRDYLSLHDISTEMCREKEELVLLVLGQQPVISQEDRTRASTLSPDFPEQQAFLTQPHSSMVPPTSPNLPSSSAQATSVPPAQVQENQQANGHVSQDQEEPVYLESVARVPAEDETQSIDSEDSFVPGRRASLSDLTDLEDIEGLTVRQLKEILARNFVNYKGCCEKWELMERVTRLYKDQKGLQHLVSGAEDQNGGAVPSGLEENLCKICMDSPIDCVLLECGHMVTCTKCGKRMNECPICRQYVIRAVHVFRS

| Binder | binding [1] | binding [2] | binding [3] |
| --- | --- | --- | --- |
| His-MFN2 (full-length) (protein, UniProt O95140-1 1-757) MSLLFSRCNSIVTVKKNKRHMAEVNASPLKHFVTAKKKINGIFEQLGAYIQESATFLEDTYRNAELDPVTTEEQVLDVKGYLSKVRGISEVLARRHMKVAFFGRTSNGKSTVINAMLWDKVLPSGIGHTTNCFLRVEGTDGHEAFLLTEGSEEKRSAKTVNQLAHALHQDKQLHAGSLVSVMWPNSKCPLLKDDLVLMDSPGIDVTTELDSWIDKFCLDADVFVLVANSESTLMQTEKHFFHKVSERLSRPNIFILNNRWDASASEPEYMEEVRRQHMERCTSFLVDELGVVDRSQAGDRIFFVSAKEVLNARIQKAQGMPEGGGALAEGFQVRMFEFQNFERRFEECISQSAVKTKFEQHTVRAKQIAEAVRLIMDSLHMAAREQQVYCEEMREERQDRLKFIDKQLELLAQDYKLRIKQITEEVERQVSTAMAEEIRRLSVLVDDYQMDFHPSPVVLKVYKNELHRHIEEGLGRNMSDRCSTAITNSLQTMQQDMIDGLKPLLPVSVRSQIDMLVPRQCFSLNYDLNCDKLCADFQEDIEFHFSLGWTMLVNRFLGPKNSRRALMGYNDQVQRPIPLTPANPSMPPLPQGSLTQEEFMVSMVTGLASLTSRTSMGILVVGGVVWKAVGWRLIALSFGLYGLLYVYERLTWTTKAKERAFKRQFVEHASEKLQLVISYTGSNCSHQVQQELSGTFAHLCQQVDVTRENLEQEIAAMNKKIEVLDSLQSKAKLLRNKAGWLDSELNMFTHQYLQPSR | binds |  |  |
| His-MFN2 (1-357) (domain or fragment, UniProt O95140-1 1-357) MSLLFSRCNSIVTVKKNKRHMAEVNASPLKHFVTAKKKINGIFEQLGAYIQESATFLEDTYRNAELDPVTTEEQVLDVKGYLSKVRGISEVLARRHMKVAFFGRTSNGKSTVINAMLWDKVLPSGIGHTTNCFLRVEGTDGHEAFLLTEGSEEKRSAKTVNQLAHALHQDKQLHAGSLVSVMWPNSKCPLLKDDLVLMDSPGIDVTTELDSWIDKFCLDADVFVLVANSESTLMQTEKHFFHKVSERLSRPNIFILNNRWDASASEPEYMEEVRRQHMERCTSFLVDELGVVDRSQAGDRIFFVSAKEVLNARIQKAQGMPEGGGALAEGFQVRMFEFQNFERRFEECISQSAVKTK | binds |  |  |
| His-Sumo-MFN2 (1-357) (domain or fragment, UniProt O95140-1 1-357) MSLLFSRCNSIVTVKKNKRHMAEVNASPLKHFVTAKKKINGIFEQLGAYIQESATFLEDTYRNAELDPVTTEEQVLDVKGYLSKVRGISEVLARRHMKVAFFGRTSNGKSTVINAMLWDKVLPSGIGHTTNCFLRVEGTDGHEAFLLTEGSEEKRSAKTVNQLAHALHQDKQLHAGSLVSVMWPNSKCPLLKDDLVLMDSPGIDVTTELDSWIDKFCLDADVFVLVANSESTLMQTEKHFFHKVSERLSRPNIFILNNRWDASASEPEYMEEVRRQHMERCTSFLVDELGVVDRSQAGDRIFFVSAKEVLNARIQKAQGMPEGGGALAEGFQVRMFEFQNFERRFEECISQSAVKTK | binds | binds | binds |
